# In PMC7819943, “Rice protein-binding microarrays: a tool to detect cis-acting elements near promoter regions in rice”:
# Chains of the proteins cited; added tags and fusions are not shown.
# UniProt Q0JBA9, entry or part of it: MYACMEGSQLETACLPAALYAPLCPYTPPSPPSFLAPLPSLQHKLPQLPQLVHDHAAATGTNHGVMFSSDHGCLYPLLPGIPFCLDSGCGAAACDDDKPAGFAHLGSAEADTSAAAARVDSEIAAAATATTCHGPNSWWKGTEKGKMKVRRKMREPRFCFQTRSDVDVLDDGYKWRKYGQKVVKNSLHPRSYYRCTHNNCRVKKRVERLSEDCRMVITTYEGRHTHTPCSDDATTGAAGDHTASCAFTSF
# This is one part of the list.
# Molecular target: OsWRKY34 (Oryza sativa, UniProt Q0JBA9 1-250)
# Assay: protein-binding microarray (RPBM); PBS, 2% BSA, 51.3 ng/ul salmon testes DNA, 50 uM zinc acetate, 200 nM TF, 25 C, 1 h; high values mean tight binding
# Conditions: protein: recombinant; tags: N-terminal polyhistidine and DsRed monomer fusion (pET32a); label: CyDye5-dUTP incorporated in the synthesized complementary strand; 3' TTTTT single-stranded linker to array surface; dsDNA, one strand shown
# Procedure, shortened: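 A custom Agilent array was converted to double-stranded form by primer extension with Cy5-dUTP and blocked with 2% BSA. Protein at 200 nM in PBS with 2% BSA, salmon testes DNA and 50 µM zinc acetate was applied for 1 h at 25 °C, followed by washing. The proteins were polyhistidine–DsRed N-terminal fusions of transcription factors, expressed in E. coli BL21-CodonPlus and Ni–NTA-purified. The binding signal is per-feature fluorescence intensity (arbitrary units) from an Axon 4000B scanner.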
row,Sequence,binding signal
1,ACCCCAAGTAAAAGCCGCACACTCTCATCACTATCCCTCCCGGAGTCACCTAGTGCAG,8390 fluorescence intensity (a.u.)
2,TCTTGTCTTTCTCTTTGTTGCTTGATTGTCTTCCCCTGGACGGAGTCACCTAGTGCAG,8500 fluorescence intensity (a.u.)
3,ATCAGTTTTTATCGCTTTGATCACAATGATTCGGGTTATACGGAGTCACCTAGTGCAG,9710 fluorescence intensity (a.u.)
4,GAAAAATGGGCTGAGTTGACTCTTAATAATTTGCTCTAGTCGGAGTCACCTAGTGCAG,8330 fluorescence intensity (a.u.)
5,CGGGCGGCGGCGGTCGGGAGGGGCTTGGCGATGATGGTGACGGAGTCACCTAGTGCAG,12200 fluorescence intensity (a.u.)
6,ATATTCCATCTATTTTACGGTAAATATTTTTCTTTTTTTACGGAGTCACCTAGTGCAG,9080 fluorescence intensity (a.u.)
7,GCTCTCTATTTTTTTTTTCTGCGGAATGATTTCATTTTGACGGAGTCACCTAGTGCAG,11900 fluorescence intensity (a.u.)
8,TTATGCCTTTGCAAACTGCAACCTCCGCTAATCATTCATGCGGAGTCACCTAGTGCAG,8460 fluorescence intensity (a.u.)
9,TCTGCCGCCACCATCACCGCACCTCGCCACCGTCGCAACACGGAGTCACCTAGTGCAG,9520 fluorescence intensity (a.u.)
10,ATGTGTTTTTTGTTCGATGCATCTTCTCTTCTTTGTGTTACGGAGTCACCTAGTGCAG,12600 fluorescence intensity (a.u.)
11,CCGTCCGTCTTATTTAAAAATTTTTATGATTAATATTTTTCGGAGTCACCTAGTGCAG,9120 fluorescence intensity (a.u.)
12,CCGCAAGTACGCTTTTTTCTGCAGGCTCATCAATCCATGCCGGAGTCACCTAGTGCAG,10200 fluorescence intensity (a.u.)
13,CTTCCCATTTCCATCTCCGTCGAGCACCCAGCCCCTTCCTCGGAGTCACCTAGTGCAG,8900 fluorescence intensity (a.u.)
14,ATGTACGCGTCACTAAATTTTGTTGCTCCCTGTCGTCACTCGGAGTCACCTAGTGCAG,8500 fluorescence intensity (a.u.)
15,GAAAACTGTTTACTACGTCCCGTATACGGCTGGTCCGTTTCGGAGTCACCTAGTGCAG,8110 fluorescence intensity (a.u.)
16,GTGGACAACCCACCTGCTGTAGTACGCATTTCCATCTCCTCGGAGTCACCTAGTGCAG,8970 fluorescence intensity (a.u.)
17,GATTCTAGTCAAATTTCTTTTAATTTTGACTACGTTTATACGGAGTCACCTAGTGCAG,11200 fluorescence intensity (a.u.)
18,TTTCTCAAAATCTATGTGTCTAGCCGGTTTTTACCGGTTCCGGAGTCACCTAGTGCAG,8550 fluorescence intensity (a.u.)
19,TCTCCGCCGCAACCACCGGCACCACTCACGCATTGGAAAGCGGAGTCACCTAGTGCAG,9830 fluorescence intensity (a.u.)
20,TCCACCCGCCGTCAATGACTTTCCTGAACAACTGATCCGCCGGAGTCACCTAGTGCAG,9460 fluorescence intensity (a.u.)
21,ATCGGATTTCTTCTTCTACCTCTAGCTAGCTCCGATCCGTCGGAGTCACCTAGTGCAG,9900 fluorescence intensity (a.u.)

# An excerpt of these results, bar-delimited:
row | Sequence | binding signal
15 | GAAAACTGTTTACTACGTCCCGTATACGGCTGGTCCGTTTCGGAGTCACCTAGTGCAG | 8110 fluorescence intensity (a.u.)
16 | GTGGACAACCCACCTGCTGTAGTACGCATTTCCATCTCCTCGGAGTCACCTAGTGCAG | 8970 fluorescence intensity (a.u.)

# The list continues.

row,Sequence,binding signal
1,CACTCGGCTCGGCTTAGCCCCGTTGTCACTCGGCTCGTTTCGGAGTCACCTAGTGCAG,12100 fluorescence intensity (a.u.)
2,AACACAGCCTACATTTCTGGCGAAATTTGTTACGTGACATCGGAGTCACCTAGTGCAG,8090 fluorescence intensity (a.u.)
3,ATGTCACCAAGCGGTATAGGTCTGAATGTATTGATGTGCCCGGAGTCACCTAGTGCAG,9370 fluorescence intensity (a.u.)
4,TGTGGATGAGTGTGTGTGTGTGGAGATCAGTGGGAGACCACGGAGTCACCTAGTGCAG,8170 fluorescence intensity (a.u.)
5,ACCCGCCGTCTGCCACGTCAGCTTGCCGCCCACCATTAGACGGAGTCACCTAGTGCAG,8040 fluorescence intensity (a.u.)
6,GTGCACCACCCGCCGCCCACCGTCGACCTCGCCGCCAACCCGGAGTCACCTAGTGCAG,10400 fluorescence intensity (a.u.)
7,TCTAGCCCGATCGTAACATTAGGTATCAGAGCCACCAATCCGGAGTCACCTAGTGCAG,9190 fluorescence intensity (a.u.)
8,TTCGGTTTTTCTCTTCATCATTTCTCTTTATTTCTTTCTCCGGAGTCACCTAGTGCAG,9290 fluorescence intensity (a.u.)
9,TCATGTTACCAAACAAATCCGGAATTTCTCTTTCTACACACGGAGTCACCTAGTGCAG,9620 fluorescence intensity (a.u.)
10,TAGCCCGGCCGCACAAGTCGCCACCACCACCACCGCACCCCGGAGTCACCTAGTGCAG,10400 fluorescence intensity (a.u.)
11,TTTCTAGATGTCTACGCGTTATCAGCATGTTGATGTCTACCGGAGTCACCTAGTGCAG,8460 fluorescence intensity (a.u.)
12,ATAGTTGGTGTGTTTATGTAGACTTATTCTATTTTGACGTCGGAGTCACCTAGTGCAG,10400 fluorescence intensity (a.u.)
13,GGGTCAGAGGGTAGGTTATTGTTGGGTAGGTGTGGAATTGCGGAGTCACCTAGTGCAG,9800 fluorescence intensity (a.u.)
14,CTACTGGGTGGTGTCTGGCGGGGATGTGCTCGAGCAAGATCGGAGTCACCTAGTGCAG,9900 fluorescence intensity (a.u.)
15,TAGTTGACCGTGTATTTTCTATAAAAATGACCATTTTACCCGGAGTCACCTAGTGCAG,8310 fluorescence intensity (a.u.)
16,GTTACTACTGCTTTTGTGGTCTCTTATTCTTCTTATTATTCGGAGTCACCTAGTGCAG,8660 fluorescence intensity (a.u.)
17,GCCCAAGACCTTGCTCCATCTCTTGCCATCAGCCCGAGACCGGAGTCACCTAGTGCAG,8150 fluorescence intensity (a.u.)
18,GCCACAATATTCTTTGCATCTGCATATTCTTTTCTCTGTTCGGAGTCACCTAGTGCAG,8090 fluorescence intensity (a.u.)
19,CTGCACGTTCATAATCATAAACTAATTTTGGCCCATTTGCCGGAGTCACCTAGTGCAG,8870 fluorescence intensity (a.u.)
20,TTGTGGACCAGTGTGTTGGCGGCCTCCTTCCAAGTGGTGTCGGAGTCACCTAGTGCAG,8210 fluorescence intensity (a.u.)
21,GTGCTTCTGCTTCGTAGTTAAGCTTTTCTAGTTTTATTTTCGGAGTCACCTAGTGCAG,8720 fluorescence intensity (a.u.)

# Random excerpt: 4 records from the list.
row,Sequence,binding signal
1,CACTCGGCTCGGCTTAGCCCCGTTGTCACTCGGCTCGTTTCGGAGTCACCTAGTGCAG,12100 fluorescence intensity (a.u.)
12,ATAGTTGGTGTGTTTATGTAGACTTATTCTATTTTGACGTCGGAGTCACCTAGTGCAG,10400 fluorescence intensity (a.u.)
19,CTGCACGTTCATAATCATAAACTAATTTTGGCCCATTTGCCGGAGTCACCTAGTGCAG,8870 fluorescence intensity (a.u.)
2,AACACAGCCTACATTTCTGGCGAAATTTGTTACGTGACATCGGAGTCACCTAGTGCAG,8090 fluorescence intensity (a.u.)

# Continued:

row,Sequence,binding signal
1,GCTTACCTTACAGTGATGGTTCTATGTCAAAGCTGTGGGGCGGAGTCACCTAGTGCAG,8910 fluorescence intensity (a.u.)
2,ACGTCCACCTCCGCATCGGCCCCTACGTCTGCGCCGAGTGCGGAGTCACCTAGTGCAG,8340 fluorescence intensity (a.u.)
3,GGATGGCCACGCTTTCCTCGCCCGCGCGCTTTGACCAAACCGGAGTCACCTAGTGCAG,13900 fluorescence intensity (a.u.)
4,TTTTCTGCACACGCTTCCCAAATCGTTAAATTGTGTGTTTCGGAGTCACCTAGTGCAG,10300 fluorescence intensity (a.u.)
5,TCCACACTCATAAGGGGATAGTCTCTCAGGTGCATTTTTTCGGAGTCACCTAGTGCAG,9040 fluorescence intensity (a.u.)
6,CTTTGTATCTGACCTACTGTTGTTCTGACCAGTCTTGGCCCGGAGTCACCTAGTGCAG,9890 fluorescence intensity (a.u.)
7,TCACATTTCAGTTTAGGGGAGTTGGTGGTAGGAGTGCAGACGGAGTCACCTAGTGCAG,8490 fluorescence intensity (a.u.)
8,ACCATTGGCCTCGCCGCTCACGCGCACCAGCGTCCCACACCGGAGTCACCTAGTGCAG,10500 fluorescence intensity (a.u.)
9,CCGCCGAACCACCGCCATCTCCCGTGTTCTTGTACCAAACCGGAGTCACCTAGTGCAG,8780 fluorescence intensity (a.u.)
10,GATCAGATCACGTGCCTATGCAGAGCATCTTCTTGGTTCTCGGAGTCACCTAGTGCAG,8450 fluorescence intensity (a.u.)
11,CAATCACGCCCATTTCCATTTCCAGCTGCTGCATCCACCTCGGAGTCACCTAGTGCAG,8750 fluorescence intensity (a.u.)
12,TCAAACGTTTATCAAAAAGTCAACGGCGTCATACATTAAACGGAGTCACCTAGTGCAG,11100 fluorescence intensity (a.u.)
13,GTTTTCCCGTATTAAAAGCCTACCTACCCACATAAATCCACGGAGTCACCTAGTGCAG,8830 fluorescence intensity (a.u.)
14,CAGTCGAGTCATTGGGCCGGGCCCATATCTTTCTTCTAAACGGAGTCACCTAGTGCAG,8110 fluorescence intensity (a.u.)
15,ACCTAATATTTCCCGTGTTCTCTTCTACGAAAACGTATTTCGGAGTCACCTAGTGCAG,10500 fluorescence intensity (a.u.)
16,CACTTCCCTTAACTAGTGTATCATTTCCGTTTTCACGCATCGGAGTCACCTAGTGCAG,8500 fluorescence intensity (a.u.)
17,ACCCATCCATCCCTAGCTTCCTCGCTGCTTCGCCCGCCACCGGAGTCACCTAGTGCAG,9110 fluorescence intensity (a.u.)
18,GCGTCTTGGTGTATATTTGAATATTTCACTCTATTTTTATCGGAGTCACCTAGTGCAG,9490 fluorescence intensity (a.u.)
19,CTCGAGGCGCCGCCCAATTCGTTCCTCCACGATTTCTTTTCGGAGTCACCTAGTGCAG,9650 fluorescence intensity (a.u.)
20,CACCATCATTGTCATCAGAAACTGCTCTTCTTTCATGTATCGGAGTCACCTAGTGCAG,9430 fluorescence intensity (a.u.)
21,GCCCAGTTCCTAGTTGCTTCTCTCTCCCTCATTAATAAAACGGAGTCACCTAGTGCAG,9380 fluorescence intensity (a.u.)

row,Sequence,binding signal
1,AACATTTCTCTATACACCACTTTCAGGCATTTGCTGTTTTCGGAGTCACCTAGTGCAG,13000 fluorescence intensity (a.u.)
2,ATGCTTCATCTAAAAGATCATTCATGCAATTTTTATTTTTCGGAGTCACCTAGTGCAG,10100 fluorescence intensity (a.u.)
3,CCAAATCTCACGCGGCGCTTTCTCTCTCTCCCGCGAGATGCGGAGTCACCTAGTGCAG,10000 fluorescence intensity (a.u.)
4,CCTGCCTGCCCAGCGATTCTTCCCACGATTTCCTTTCCTGCGGAGTCACCTAGTGCAG,10300 fluorescence intensity (a.u.)
5,ACCCTCCGCCCCGCCCGCCACTCCCGCCATCCCGGCCGCCCGGAGTCACCTAGTGCAG,12400 fluorescence intensity (a.u.)
6,ACCCAAAGCCACCCGCAACAACCGACGACGACGACGACCGCGGAGTCACCTAGTGCAG,18200 fluorescence intensity (a.u.)
7,TTTTATGGGTCTTTTTTTACTTCAACATTATATATATATACGGAGTCACCTAGTGCAG,10700 fluorescence intensity (a.u.)
8,ATCTATTGTTGTGGCTTCGCTGGTCAAATTTGCTGTTCTACGGAGTCACCTAGTGCAG,10000 fluorescence intensity (a.u.)
9,AACCAAATCCTTGTTCTAGTCTTGTATCACCCGCATCTGCCGGAGTCACCTAGTGCAG,10100 fluorescence intensity (a.u.)
10,TGGACTGGTGGTGTACTCGTGTTGAGTCTGCCCTCGTAACCGGAGTCACCTAGTGCAG,12500 fluorescence intensity (a.u.)
11,TTGCATGTTTTGTTATCTTTGCCAGTTTTTGCATGTTTCTCGGAGTCACCTAGTGCAG,10300 fluorescence intensity (a.u.)
12,TCTAGTCGGCGTGCACGCGATCACGCCGCACTTTTCCAACCGGAGTCACCTAGTGCAG,8150 fluorescence intensity (a.u.)
13,ACTAGCTCATTTCACCCGTTGTTATGTAAACTCTTTAGCCCGGAGTCACCTAGTGCAG,10400 fluorescence intensity (a.u.)
14,ATGTTGGTCTCACTTATCGCATCATCTAAAATTGGACACTCGGAGTCACCTAGTGCAG,8280 fluorescence intensity (a.u.)
15,ATGCTTTGTTGTTTCTCTTTTTTTTTTTCCGGAATTGCTACGGAGTCACCTAGTGCAG,8940 fluorescence intensity (a.u.)
16,AACAACCGGTAATTACTCCCTCGGTCCCTCAACATTTGACCGGAGTCACCTAGTGCAG,10400 fluorescence intensity (a.u.)
17,CTCTCTCTCTCTCTCAGCCTCATATGAGCCGTGTCTGCCTCGGAGTCACCTAGTGCAG,8200 fluorescence intensity (a.u.)
18,TGAATAATCTTACCCCAACTTGGCCAATTAATGTTTGTTACGGAGTCACCTAGTGCAG,8540 fluorescence intensity (a.u.)
19,ATCGGTGATGTGGGAGGGGATACTAGAAAGGAGGATGAAGCGGAGTCACCTAGTGCAG,9200 fluorescence intensity (a.u.)
20,GGAGGCATGATGGCGGCATGGTGGAGGGTGGGGTGACGTGCGGAGTCACCTAGTGCAG,12000 fluorescence intensity (a.u.)
21,ACCTCGTACCTCGCCGCTGTTCCGTTCCGTGCTCTGTGTCCGGAGTCACCTAGTGCAG,18700 fluorescence intensity (a.u.)
